Data taken from paper doi:10.1101/532275.
These are yes or no findings as the source states them, for the method shown. In cells and extracts the contact can be indirect. Tags and fused reporters may be left off the sequences shown.

Target: GFP-NbATG8f (GFP as an N-terminal fusion, pGWB6-NbATG8f) (N. benthamiana)
Test: co-IP

B1: GUSp-Myc (1-166 aa of GUS, C-terminal Myc tag) (domain or fragment, UniProt P05804 1-166)
chain: MLRPVETPTREIKKLDGLWAFSLDRENCGIDQRWWESALQESRAIAVPGSFNDQFADADIRNYAGNVWYQREVFIPKGWAGQRIVLRFDAVTHYGKVWVNNQEVMEHQGGYTPFEADVTPYVIAGKSVRITVCVNNELNWQTIPPGMVITDENGKKKQSYFHDFFN
binding: no binding
